Laboratory results: PMC7385628, “Molecular determinants for dsDNA translocation by the transcription-repair coupling and evolvability factor Mfd”
Results are given in words; binding and its absence hold for the method and conditions named.

Protein sequences, listed by entry. Tags and fused reporters are not part of them.
UniProt P30958: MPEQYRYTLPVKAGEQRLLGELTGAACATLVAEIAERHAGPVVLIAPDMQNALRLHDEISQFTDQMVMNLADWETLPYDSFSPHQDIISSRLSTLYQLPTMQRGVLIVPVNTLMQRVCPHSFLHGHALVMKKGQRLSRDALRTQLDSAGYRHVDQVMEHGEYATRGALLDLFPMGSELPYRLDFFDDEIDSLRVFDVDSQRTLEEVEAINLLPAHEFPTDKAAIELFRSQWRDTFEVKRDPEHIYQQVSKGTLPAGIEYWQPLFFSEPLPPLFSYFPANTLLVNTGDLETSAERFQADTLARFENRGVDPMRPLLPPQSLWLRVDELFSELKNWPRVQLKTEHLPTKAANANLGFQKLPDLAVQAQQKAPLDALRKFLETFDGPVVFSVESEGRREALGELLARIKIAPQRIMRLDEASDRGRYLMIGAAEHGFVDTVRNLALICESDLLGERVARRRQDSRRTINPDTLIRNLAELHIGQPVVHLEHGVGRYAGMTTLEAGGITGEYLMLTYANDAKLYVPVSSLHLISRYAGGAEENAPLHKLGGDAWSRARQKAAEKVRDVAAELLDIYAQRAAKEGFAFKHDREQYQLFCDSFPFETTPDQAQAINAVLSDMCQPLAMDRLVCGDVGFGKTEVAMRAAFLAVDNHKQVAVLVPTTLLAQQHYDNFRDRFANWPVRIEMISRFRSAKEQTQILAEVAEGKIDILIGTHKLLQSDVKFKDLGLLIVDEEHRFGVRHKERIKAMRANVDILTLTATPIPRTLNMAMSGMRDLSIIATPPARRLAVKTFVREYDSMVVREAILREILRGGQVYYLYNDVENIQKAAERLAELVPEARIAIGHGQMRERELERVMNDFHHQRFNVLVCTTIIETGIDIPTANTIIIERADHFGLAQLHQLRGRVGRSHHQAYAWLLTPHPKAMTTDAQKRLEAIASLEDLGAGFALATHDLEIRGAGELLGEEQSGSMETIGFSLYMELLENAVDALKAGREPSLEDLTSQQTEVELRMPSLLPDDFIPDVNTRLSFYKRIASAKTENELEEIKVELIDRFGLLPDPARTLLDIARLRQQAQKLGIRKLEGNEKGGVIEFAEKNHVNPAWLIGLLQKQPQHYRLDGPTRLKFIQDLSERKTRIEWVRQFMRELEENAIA

Molecular target: Escherichia coli Mfd (transcription-repair coupling factor) (Escherichia coli) (UniProt P30958)
Test: SEC; gel filtration of purified Mfd (Supplementary Fig. 1a); nucleotide state and buffer of this run not given; both purified

binding: no binding
Substance: Escherichia coli Mfd (transcription-repair coupling factor) (from UniProt P30958 1-1148) (enzyme)
